Measurements reported in PubChem BioAssay AID1671195 (Yale University, 2021).
Assay: 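Knockdowns that increase or decrease uptake of fluorescent LDL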 (primary screen). Cell system: human Huh7 hepatoma cells. Reagents: siRNA pool against human genes, 18 nM. Time to read-out: about 2 to 2.5 days of knockdown, then 8 h LDL uptake. Conditions: DiI-labelled LDL at 30 µg/ml for 8 h, in lipoprotein-deficient serum medium. Measurement: 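Per-cell DiI-LDL intensity by automated imaging; well means scaled to the plate median and given as a robust z-score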. Direction: robust z-score: higher = more LDL uptake after knockdown. Active means: 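a gene counts as active if at least two replicate z-scores exceed ±2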.
The deposit covers about 22,000 reagents; below is an unselected part. In the full data, about 1,510 (6.9%) were called active. 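Active includes knockdowns raising or lowering LDL uptake; positive z-scores mean more uptake, negative mean less.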 Unmarked entries are inactive. Reagent sequences are not shown.

{"Gene":"SMOX (GeneID 54498)","robust z-score, replicate 1":-0.533,"robust z-score, replicate 2":-0.279,"robust z-score, replicate 3":0.0536}
{"Gene":"KRT18P42 (GeneID 391819)","robust z-score, replicate 1":-0.818,"robust z-score, replicate 2":-0.927,"robust z-score, replicate 3":-0.527}
{"Gene":"LOC389149 (retired record) (GeneID 389149)","robust z-score, replicate 1":2.03,"robust z-score, replicate 2":1.27,"robust z-score, replicate 3":1.59}
{"Gene":"H3-4 (GeneID 8290)","robust z-score, replicate 1":0.327,"robust z-score, replicate 2":-0.291,"robust z-score, replicate 3":-0.0773}
{"Gene":"SLC49A4 (GeneID 84925)","robust z-score, replicate 1":-0.442,"robust z-score, replicate 2":-0.261,"robust z-score, replicate 3":-0.487}
{"Gene":"GEMIN5 (GeneID 25929)","robust z-score, replicate 1":-0.161,"robust z-score, replicate 2":0.686,"robust z-score, replicate 3":-0.532}
{"Gene":"IFITM5 (GeneID 387733)","robust z-score, replicate 1":0.526,"robust z-score, replicate 2":0.559,"robust z-score, replicate 3":0.537}
{"Gene":"LOC390614 (GeneID 390614)","robust z-score, replicate 1":0.0839,"robust z-score, replicate 2":0.169,"robust z-score, replicate 3":-0.634}
{"Gene":"DYDC2 (GeneID 84332)","robust z-score, replicate 1":-1.1,"robust z-score, replicate 2":-0.422,"robust z-score, replicate 3":-1.11}
{"Gene":"RNF112 (GeneID 7732)","robust z-score, replicate 1":-1.99,"robust z-score, replicate 2":-1.57,"robust z-score, replicate 3":-1.75}
{"Gene":"GNB3 (GeneID 2784)","robust z-score, replicate 1":-0.604,"robust z-score, replicate 2":-0.865,"robust z-score, replicate 3":-0.352}
{"Gene":"GPR155 (GeneID 151556)","robust z-score, replicate 1":-0.399,"robust z-score, replicate 2":-0.365,"robust z-score, replicate 3":-0.459}
{"Gene":"RPL19P13 (GeneID 392193)","robust z-score, replicate 1":1.43,"robust z-score, replicate 2":1.8,"robust z-score, replicate 3":1.29}
{"Gene":"UNC93B1 (GeneID 81622)","robust z-score, replicate 1":"3.15 (active)","robust z-score, replicate 2":3.51,"robust z-score, replicate 3":2.85}
{"Gene":"IMPA2 (GeneID 3613)","robust z-score, replicate 1":-0.856,"robust z-score, replicate 2":-1.25,"robust z-score, replicate 3":-1.02}
{"Gene":"GNA11 (GeneID 2767)","robust z-score, replicate 1":0.217,"robust z-score, replicate 2":0.194,"robust z-score, replicate 3":0.114}
{"Gene":"PVT1 (GeneID 5820)","robust z-score, replicate 1":-0.782,"robust z-score, replicate 2":-0.636,"robust z-score, replicate 3":-0.706}
{"Gene":"CAVIN3 (GeneID 112464)","robust z-score, replicate 1":-1.37,"robust z-score, replicate 2":-0.965,"robust z-score, replicate 3":-1.56}
{"Gene":"LINC00858 (GeneID 170425)","robust z-score, replicate 1":0.289,"robust z-score, replicate 2":0.239,"robust z-score, replicate 3":0.521}
{"Gene":"HDAC1 (GeneID 3065)","robust z-score, replicate 1":-0.397,"robust z-score, replicate 2":-0.123,"robust z-score, replicate 3":-0.912}
{"Gene":"SEPTIN9 (GeneID 10801)","robust z-score, replicate 1":-0.49,"robust z-score, replicate 2":-0.874,"robust z-score, replicate 3":-1.07}
{"Gene":"APOBEC3G (GeneID 60489)","robust z-score, replicate 1":0.879,"robust z-score, replicate 2":0.953,"robust z-score, replicate 3":0.964}
{"Gene":"RALY (GeneID 22913)","robust z-score, replicate 1":-0.0648,"robust z-score, replicate 2":1.47,"robust z-score, replicate 3":-0.799}
{"Gene":"SPATC1 (GeneID 375686)","robust z-score, replicate 1":"-2.27 (active)","robust z-score, replicate 2":-2.39,"robust z-score, replicate 3":-2.38}

Called active, of those listed so far:
{"Gene":"UNC93B1 (GeneID 81622)","robust z-score, replicate 1":"3.15 (active)","robust z-score, replicate 2":3.51,"robust z-score, replicate 3":2.85}
{"Gene":"SPATC1 (GeneID 375686)","robust z-score, replicate 1":"-2.27 (active)","robust z-score, replicate 2":-2.39,"robust z-score, replicate 3":-2.38}
